Experimental data: patent US10597370B2, “2-(benzothiazol-2-yl)-2-cyano-acetamide derivatives and their use as endothelial lipase inhibitors” (BRISTOL-MYERS SQUIBB COMPANY, priority 2016, dated 2020)
Some results were stated once for a whole list of compounds, not compound by compound.

Molecular target: T1, Endothelial lipase (EL) (Homo sapiens, UniProt Q9Y5X9)
T1 construct: transformed by RAGE technology (Athersys) to overexpress endogenous EL; endogenous in cells; the conditioned medium served as the enzyme source
T1 sequence (Q9Y5X9 21-500): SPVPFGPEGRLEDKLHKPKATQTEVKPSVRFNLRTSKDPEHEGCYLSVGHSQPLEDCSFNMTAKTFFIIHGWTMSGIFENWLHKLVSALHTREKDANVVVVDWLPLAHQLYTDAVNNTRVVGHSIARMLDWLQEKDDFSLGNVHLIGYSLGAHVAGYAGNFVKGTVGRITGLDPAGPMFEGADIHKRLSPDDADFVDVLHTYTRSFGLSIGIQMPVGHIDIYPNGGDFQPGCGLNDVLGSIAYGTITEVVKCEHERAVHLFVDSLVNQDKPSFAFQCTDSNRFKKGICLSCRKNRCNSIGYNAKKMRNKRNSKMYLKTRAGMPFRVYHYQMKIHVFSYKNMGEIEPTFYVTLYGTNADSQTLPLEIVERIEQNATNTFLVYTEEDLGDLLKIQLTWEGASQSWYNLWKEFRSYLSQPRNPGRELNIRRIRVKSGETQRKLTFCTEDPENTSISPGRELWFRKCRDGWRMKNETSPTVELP
Test: Endothelial lipase (EL) enzymatic assay with fluorescent substrate A10070 in DMPG vesicles
Format: biochemical
Conditions: EL assay described above; printed as ≤1 μM (1000 nM); read-out: EL IC50 values (range statement)
Experimental: Endothelial lipase activity was measured using a fluorescent substrate, A10070, (Invitrogen, CA) doped into an artificial vesicle containing DMPG (Avanti Polar Lipids) as the excipient. Vesicles were prepared by combining 285 μL of 1 mM DMPG in a 1:1 mixture of MeOH and CHCl3 with 15 μL of 1 mM A10070 in a 1:1 mixture of MeOH and CHCl3. The mixture was dried under nitrogen and resuspended in 150 μL of 50 mM HEPES pH 8.0 buffer containing 100 mM NaCl and 0.2 mM EDTA. The sample was allowed to sit at rt for 15 min and then was sonicated 3×4 mins on ice with a Branson Sonicator using duty cycle 1. This preparation provides vesicles with a mole fraction of 0.05 for the FRET substrate.
The enzymatic assay was measured using white, opaque 96-well half area plates. Each well contained 60 μL of assay buffer (50 mM HEPES pH 8.0, 50 mM NaCl and 1 mM CaCl2) and 2 ul of a DMSO solution containing compound of interest. Conditioned media obtained from HT-1080 cells, which were transformed by RAGE technology (Athersys) to overexpress endogenous EL, was added and the reaction was allowed to incubate for 20 min at 37° C. with gentle agitation. The reaction was started by the addition of 20 μL of a 1:4 dilution of vesicles. The final total reaction volume was 100 μL. The reaction rates were measured on a Gemini plate reader with an excitation wavelength of 488 nm and an emission of 530 nm. Readings were taken every 20 seconds for 10 min with agitation between each reading. The slope of the linear portion of the readout was used to calculate the rate of the reaction.

Row | SMILES | IC50 [µM]
1 | N#CC(C(=O)NCC(=O)NC1CC1)c1nc2ccc(-c3ccccc3)cc2s1 (centres unmarked) [Example 1, 2-cyano-N-(2-(cyclopropylamino)-2-oxoethyl)-2-(6-phenylbenzo[d]thiazol-2-yl)acetamide] | ≤ 1
2 | CN(C)C(=O)c1cccc(-c2ccc3nc(C(C#N)C(=O)NCC(=O)NC4CC4)sc3c2)c1 (centres unmarked) [Example 2, 3-{2-[cyano ({[(cyclopropyl-carbamoyl)methyl]carbamoyl})methyl]-1,3-benzothiazol-6-yl}-N,N-dimethyl-benzamide] | ≤ 1
3 | N#CC(C(=O)NCC(=O)NC1CC1)c1nc2ccc(-c3cccc(C(=O)N4CCCCC4)c3)cc2s1 (centres unmarked) [Example 5, 2-cyano-N-[(cyclopropyl-carbamoyl)methyl]-2-{6-[3-(piperidine-1-carbonyl)phenyl]-1,3-benzothiazol-2-yl}acetamide] | ≤ 1
4 | N#CC(C(=O)NCC(=O)NC1CC1)c1nc2ccc(-c3ccc(NC(=O)OCc4ccccc4)cc3)cc2s1 (centres unmarked) [Example 15, benzyl N-(4-{2-[cyano ({[(cyclopropyl-carbamoyl)methyl]carbamoyl})methyl]-1,3-benzothiazol-6-yl}phenyl) carbamate] | ≤ 1
5 | N#CC(C(=O)NCC(=O)NC1CC1)c1nc2ccc(-c3cccc(C(N)=O)c3)cc2s1 (centres unmarked) [Example 9, 3-{2-[cyano ({[(cyclopropyl-carbamoyl)methyl]carbamoyl})methyl]-1,3-benzothiazol-6-yl} benzamide] | ≤ 1
6 | N#CC(C(=O)NCC(=O)NC1CC1)c1nc2ccc(-c3ccc(C(N)=O)cc3)cc2s1 (centres unmarked) [Example 11, 4-{2-[cyano ({[(cyclopropyl-carbamoyl)methyl]carbamoyl})methyl]-1,3-benzothiazol-6-yl} benzamide] | ≤ 1
7 | N#CC(C(=O)NCC(=O)NC1CC1)c1nc2ccc(-c3ccc4c(c3)C(=O)NC4)cc2s1 (centres unmarked) [Example 6, 2-cyano-N-[(cyclopropyl-carbamoyl)methyl]-2-[6-(3-oxo-2,3-dihydro-1H-isoindol-5-yl)-1,3-benzothiazol-2-yl] acetamide] | ≤ 1
8 | N#CC(C(=O)NCC(=O)NC1CC1)c1nc2ccc(-c3ccc(C(=O)N4CCOCC4)cc3)cc2s1 (centres unmarked) [Example 14, 2-cyano-N-(2-(cyclopropylamino)-2-oxoethyl)-2-(6-(4-(morpholine-4-carbonyl)phenyl)benzo[d]thiazol-2-yl)acetamide] | ≤ 1
9 | CN(C)C(=O)c1ccc(-c2ccc3nc(C(C#N)C(=O)NCC(=O)NC4CC4)sc3c2)cc1F (centres unmarked) [Example 3, 4-{2-[cyano ({[(cyclopropyl-carbamoyl)methyl]carbamoyl})methyl]-1,3-benzothiazol-6-yl}-2-fluoro-N,N-dimethyl-benzamide] | ≤ 1
10 | N#CC(C(=O)NCC(=O)NC1CC1)c1nc2ccc(-c3cccc(C(=O)N4CCOCC4)c3)cc2s1 (centres unmarked) [Example 10, 2-cyano-N-[(cyclopropyl-carbamoyl)methyl]-2-{6-[3-(morpholine-4-carbonyl)phenyl]-1,3-benzothiazol-2-yl]acetamide] | ≤ 1
11 | COCCNC(=O)c1ccc(-c2ccc3nc(C(C#N)C(=O)NCC(=O)NC4CC4)sc3c2)cc1 (centres unmarked) [Example 12, 4-{2-[cyano ({[(cyclopropyl-carbamoyl)methyl]carbamoyl})methyl]-1,3-benzothiazol-6-yl}-N-(2-methoxyethyl) benzamide] | ≤ 1
12 | N#CC(C(=O)NCC(=O)NC1CC1)c1nc2ccc(-c3ccc(C(=O)N4CCC4)cc3)cc2s1 (centres unmarked) [Example 7, 2-{6-[4-(azetidine-1-carbonyl)phenyl]-1,3-benzothiazol-2-yl}-2-cyano-N-[(cyclopropyl-carbamoyl)methyl] acetamide] | ≤ 1
13 | N#CC(C(=O)NCC(=O)NC1CC1)c1nc2ccc(-c3ccc(C(=O)N4CCCCC4)cc3)cc2s1 (centres unmarked) [Example 13, 2-cyano-N-[(cyclopropyl-carbamoyl)methyl]-2-{6-[4-(piperidine-1-carbonyl)phenyl]-1,3-benzothiazol-2-yl} acetamide] | ≤ 1
14 | N#CC(C(=O)NCC(=O)NC1CC1)c1nc2ccc(-c3ccc4c(c3)CNC4=O)cc2s1 (centres unmarked) [Example 8, 2-cyano-N-[(cyclopropyl-carbamoyl)methyl]-2-[6-(1-oxo-2,3-dihydro-1H-isoindol-5-yl)-1,3-benzothiazol-2-yl]acetamide] | ≤ 1

Second part, the compound after the results:

Row | IC50 [µM] | SMILES
15 | ≤ 1 | N#CC(C(=O)NCC(=O)NC1CC1)c1nc2ncc(-c3ccccc3)cc2s1 (centres unmarked) [Example 21, 2-cyano-N-(2-(cyclopropylamino)-2-oxoethyl)-2-(6-phenylthiazolo[4,5-b]pyridin-2-yl)acetamide]
16 | ≤ 1 | N#CC(C(=O)NCC(=O)NC1COC1)c1nc2ccc(-c3ccc(F)nc3)cc2s1 (centres unmarked) [Example 17, 2-cyano-2-[6-(6-fluoropyridin-3-yl)-1,3-benzothiazol-2-yl]-N-{[(oxetan-3-yl)carbamoyl]methyl} acetamide]
17 | ≤ 1 | N#CC(C(=O)NCC(=O)NC1CC1)c1nc2cc(-c3ccc(C(N)=O)cc3)c(F)cc2s1 (centres unmarked) [Example 28, 4-{2-[cyano ({[(cyclopropyl-carbamoyl)methyl]carbamoyl})methyl]-6-fluoro-1,3-benzothiazol-5-yl}benzamide]
18 | ≤ 1 | N#CC(C(=O)NCC(=O)NC1CC1)c1nc2ncc(-c3cccc(C(=O)N4CCOCC4)c3)cc2s1 (centres unmarked) [Example 22, 2-cyano-N-[(cyclopropyl-carbamoyl)methyl]-2-{6-[3-(morpholine-4-carbonyl)phenyl]-[1,3]thiazolo[4,5-b]pyridin-2-yl}acetamide]
19 | ≤ 1 | N#CC(C(=O)NCC(=O)NC1CC1)c1nc2cc(-c3cccc(C(N)=O)c3)c(F)cc2s1 (centres unmarked) [Example 26, 3-{2-[cyano({[(cyclopropylcarbamoyl)methyl]carbamoyl})methyl]-6-fluoro-1,3-benzothiazol-5-yl}benzamide]
20 | ≤ 1 | COCCNC(=O)c1ccc(-c2cnc3nc(C(C#N)C(=O)NCC(=O)NC4CC4)sc3c2)cc1 (centres unmarked) [Example 25, 4-{2-[cyano({[(cyclopropyl-carbamoyl)methyl]carbamoyl})methyl]-[1,3]thiazolo[4,5-b]pyridin-6-yl}-N-(2-methoxyethyl) benzamide]
21 | ≤ 1 | N#CC(C(=O)NCC(=O)NC1CC1)c1nc2cc(-c3ccccc3)c(F)cc2s1 (centres unmarked) [Example 27, 2-cyano-N-[(cyclopropyl-carbamoyl)methyl]-2-(6-fluoro-5-phenyl-1,3-benzothiazol-2-yl)acetamide]
22 | ≤ 1 | N#CC(C(=O)NCC(=O)NC1CC1)c1nc2ccc(-c3ccc(F)nc3)cc2s1 (centres unmarked) [Example 16, 2-cyano-N-[(cyclopropyl-carbamoyl)methyl]-2-[6-(6-fluoropyridin-3-yl)-1,3-benzothiazol-2-yl] acetamide]
23 | ≤ 1 | N#CC(C(=O)NCC(=O)NC1CC1)c1nc2ncc(-c3ccc(C(N)=O)cc3)cc2s1 (centres unmarked) [Example 24, 4-{2-[cyano({[(cyclopropyl-carbamoyl)methyl]carbamoyl})methyl]-[1,3]thiazolo[4,5-b]pyridin-6-yl}benzamide]
24 | ≤ 1 | CN1CCN(C(=O)c2cccc(-c3cc4nc(C(C#N)C(=O)NCC(=O)NC5CC5)sc4cc3F)c2)CC1 (centres unmarked) [Example 29, 2-cyano-N-[(cyclopropyl-carbamoyl)methyl]-2-{6-fluoro-5-[3-(4-methylpiperazine-1-carbonyl)phenyl]-1,3-benzothiazol-2-yl}acetamide]
25 | ≤ 1 | CN1CCN(C(=O)c2ccc(-c3cnc4nc(C(C#N)C(=O)NCC(=O)NC5CC5)sc4c3)cc2)CC1 (centres unmarked) [Example 23, 2-cyano-N-[(cyclopropyl-carbamoyl)methyl]-2-{6-[4-(4-methylpiperazine-1-carbonyl)phenyl]-[1,3]thiazolo[4,5-6]pyridin-2-yl}acetamide]
26 | ≤ 1 | CN1CCN(C(=O)c2ccc(-c3ccc4nc(C(C#N)C(=O)NCC(=O)NC5CC5)sc4c3)cc2)CC1 (centres unmarked) [Example 20, 2-cyano-N-[(cyclopropyl-carbamoyl)methyl]-2-{6-[4-(4-methyl-piperazine-1-carbonyl)phenyl]-1,3-benzothiazol-2-yl} acetamide]
